From the supplement of paper PMC12823440, “Inhibitors supercharge kinase turnover through native proteolytic circuits” (Nature, 2025)
Where a name gives a salt, the structure may show the parent alone. This is one part of the list. The calls rarely recur for the same compound in another form.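 In K562 cells expressing nanoluciferase-fused kinases, luminescence was recorded at 4 h intervals between 2 and 18 h, normalized as percent of control with DMSO at 100% and a positive control at 0%. A significant (2 sigma) signal drop marks a time point as decreased. The authors' rule for a hit is not shown and takes in more than the number of time points.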

The chains behind the UniProt entries cited, without tags or fusion partners. Where a name states a change or a piece, a line headed by the entry shows the natural chain unless it says otherwise.
UniProt P31152, whole entry: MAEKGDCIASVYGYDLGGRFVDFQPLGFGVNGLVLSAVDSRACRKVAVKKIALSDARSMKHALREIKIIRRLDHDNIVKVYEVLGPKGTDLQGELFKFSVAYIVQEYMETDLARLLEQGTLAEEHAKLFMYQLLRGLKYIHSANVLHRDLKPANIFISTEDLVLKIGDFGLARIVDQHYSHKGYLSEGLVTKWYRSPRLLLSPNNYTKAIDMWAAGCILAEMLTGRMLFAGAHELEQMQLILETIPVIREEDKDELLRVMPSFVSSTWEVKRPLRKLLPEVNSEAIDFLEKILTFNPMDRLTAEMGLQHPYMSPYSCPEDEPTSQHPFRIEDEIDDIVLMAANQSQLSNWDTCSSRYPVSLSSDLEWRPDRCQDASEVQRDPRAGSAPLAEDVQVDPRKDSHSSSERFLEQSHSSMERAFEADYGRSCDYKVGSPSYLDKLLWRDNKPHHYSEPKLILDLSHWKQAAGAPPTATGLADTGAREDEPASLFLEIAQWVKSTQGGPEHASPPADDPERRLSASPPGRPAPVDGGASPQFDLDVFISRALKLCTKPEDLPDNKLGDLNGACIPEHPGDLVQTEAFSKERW
UniProt P49137, whole entry, looked up: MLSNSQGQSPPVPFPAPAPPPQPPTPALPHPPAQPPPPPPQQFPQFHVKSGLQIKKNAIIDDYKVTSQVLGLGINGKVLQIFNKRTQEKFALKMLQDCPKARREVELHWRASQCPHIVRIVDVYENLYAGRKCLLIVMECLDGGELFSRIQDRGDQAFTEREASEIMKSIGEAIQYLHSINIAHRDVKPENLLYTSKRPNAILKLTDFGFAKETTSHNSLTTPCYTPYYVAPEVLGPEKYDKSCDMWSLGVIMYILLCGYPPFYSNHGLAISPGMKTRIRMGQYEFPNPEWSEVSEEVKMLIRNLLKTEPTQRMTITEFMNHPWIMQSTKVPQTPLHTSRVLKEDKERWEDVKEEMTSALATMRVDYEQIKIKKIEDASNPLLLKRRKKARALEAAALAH
UniProt Q9BUB5: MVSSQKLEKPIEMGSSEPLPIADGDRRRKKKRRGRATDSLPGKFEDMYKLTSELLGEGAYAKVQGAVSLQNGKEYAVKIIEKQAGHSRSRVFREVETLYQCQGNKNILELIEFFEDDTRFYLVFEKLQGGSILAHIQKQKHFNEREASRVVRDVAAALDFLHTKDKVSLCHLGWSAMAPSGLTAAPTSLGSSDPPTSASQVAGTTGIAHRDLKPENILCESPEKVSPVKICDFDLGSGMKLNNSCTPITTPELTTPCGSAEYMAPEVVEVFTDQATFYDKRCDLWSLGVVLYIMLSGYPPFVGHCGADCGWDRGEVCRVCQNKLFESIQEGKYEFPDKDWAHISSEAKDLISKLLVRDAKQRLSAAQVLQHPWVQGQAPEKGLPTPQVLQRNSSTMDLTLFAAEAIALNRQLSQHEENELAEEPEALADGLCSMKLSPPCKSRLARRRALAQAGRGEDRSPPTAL
UniProt Q16620, whole entry, looked up: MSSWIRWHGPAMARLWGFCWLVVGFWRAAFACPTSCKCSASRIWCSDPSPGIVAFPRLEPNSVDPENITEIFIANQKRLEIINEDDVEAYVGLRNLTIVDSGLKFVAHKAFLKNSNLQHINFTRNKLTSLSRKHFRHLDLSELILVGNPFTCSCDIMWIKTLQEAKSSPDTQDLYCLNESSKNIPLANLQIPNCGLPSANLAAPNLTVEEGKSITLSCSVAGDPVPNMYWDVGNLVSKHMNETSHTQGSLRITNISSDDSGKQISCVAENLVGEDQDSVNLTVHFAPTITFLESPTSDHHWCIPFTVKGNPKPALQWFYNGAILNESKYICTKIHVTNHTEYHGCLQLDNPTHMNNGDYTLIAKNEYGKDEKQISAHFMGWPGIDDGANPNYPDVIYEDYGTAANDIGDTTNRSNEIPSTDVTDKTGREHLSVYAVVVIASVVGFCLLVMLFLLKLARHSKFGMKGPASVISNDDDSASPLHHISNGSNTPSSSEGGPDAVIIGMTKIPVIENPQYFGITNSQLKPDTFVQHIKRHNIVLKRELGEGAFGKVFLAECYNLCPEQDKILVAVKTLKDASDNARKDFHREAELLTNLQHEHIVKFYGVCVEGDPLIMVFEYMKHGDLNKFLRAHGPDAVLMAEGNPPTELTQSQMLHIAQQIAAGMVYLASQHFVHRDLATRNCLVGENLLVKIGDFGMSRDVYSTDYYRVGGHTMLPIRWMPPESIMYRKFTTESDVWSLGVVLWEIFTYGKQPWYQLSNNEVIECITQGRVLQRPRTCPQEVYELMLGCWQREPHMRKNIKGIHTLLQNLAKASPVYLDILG
UniProt O96013: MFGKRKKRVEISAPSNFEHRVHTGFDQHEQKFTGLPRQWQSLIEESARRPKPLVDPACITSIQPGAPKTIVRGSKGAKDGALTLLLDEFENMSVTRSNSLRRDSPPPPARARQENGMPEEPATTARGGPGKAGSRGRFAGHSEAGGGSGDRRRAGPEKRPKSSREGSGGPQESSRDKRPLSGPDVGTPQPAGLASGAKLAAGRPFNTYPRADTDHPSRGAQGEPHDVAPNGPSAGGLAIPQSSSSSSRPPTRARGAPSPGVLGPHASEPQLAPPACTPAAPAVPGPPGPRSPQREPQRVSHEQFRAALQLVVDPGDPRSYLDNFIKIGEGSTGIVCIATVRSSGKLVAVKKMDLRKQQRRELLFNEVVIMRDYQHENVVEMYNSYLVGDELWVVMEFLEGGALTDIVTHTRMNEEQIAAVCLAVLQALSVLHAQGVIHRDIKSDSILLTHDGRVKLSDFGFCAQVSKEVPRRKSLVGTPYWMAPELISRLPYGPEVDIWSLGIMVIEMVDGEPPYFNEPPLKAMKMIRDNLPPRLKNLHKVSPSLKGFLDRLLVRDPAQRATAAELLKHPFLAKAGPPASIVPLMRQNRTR
UniProt Q96KB5: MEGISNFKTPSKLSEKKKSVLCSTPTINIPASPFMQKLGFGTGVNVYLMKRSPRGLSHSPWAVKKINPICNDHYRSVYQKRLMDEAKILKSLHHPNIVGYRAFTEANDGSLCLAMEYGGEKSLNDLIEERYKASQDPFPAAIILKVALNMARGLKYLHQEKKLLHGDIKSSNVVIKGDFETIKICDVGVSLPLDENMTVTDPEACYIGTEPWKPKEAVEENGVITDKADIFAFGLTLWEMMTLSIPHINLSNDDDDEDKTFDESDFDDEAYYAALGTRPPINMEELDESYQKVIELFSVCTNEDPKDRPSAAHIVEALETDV
UniProt Q15118, whole entry, looked up: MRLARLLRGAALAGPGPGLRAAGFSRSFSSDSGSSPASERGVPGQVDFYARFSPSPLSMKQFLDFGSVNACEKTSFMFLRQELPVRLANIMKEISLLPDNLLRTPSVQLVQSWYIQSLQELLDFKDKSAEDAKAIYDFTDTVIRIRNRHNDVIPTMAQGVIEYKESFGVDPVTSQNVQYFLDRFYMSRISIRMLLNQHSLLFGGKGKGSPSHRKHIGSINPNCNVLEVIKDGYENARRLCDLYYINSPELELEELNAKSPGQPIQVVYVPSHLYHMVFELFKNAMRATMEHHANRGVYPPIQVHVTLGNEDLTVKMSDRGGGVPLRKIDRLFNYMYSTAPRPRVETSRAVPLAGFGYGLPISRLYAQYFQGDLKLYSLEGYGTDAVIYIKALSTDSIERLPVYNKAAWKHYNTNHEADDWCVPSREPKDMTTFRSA
UniProt P53350, whole entry: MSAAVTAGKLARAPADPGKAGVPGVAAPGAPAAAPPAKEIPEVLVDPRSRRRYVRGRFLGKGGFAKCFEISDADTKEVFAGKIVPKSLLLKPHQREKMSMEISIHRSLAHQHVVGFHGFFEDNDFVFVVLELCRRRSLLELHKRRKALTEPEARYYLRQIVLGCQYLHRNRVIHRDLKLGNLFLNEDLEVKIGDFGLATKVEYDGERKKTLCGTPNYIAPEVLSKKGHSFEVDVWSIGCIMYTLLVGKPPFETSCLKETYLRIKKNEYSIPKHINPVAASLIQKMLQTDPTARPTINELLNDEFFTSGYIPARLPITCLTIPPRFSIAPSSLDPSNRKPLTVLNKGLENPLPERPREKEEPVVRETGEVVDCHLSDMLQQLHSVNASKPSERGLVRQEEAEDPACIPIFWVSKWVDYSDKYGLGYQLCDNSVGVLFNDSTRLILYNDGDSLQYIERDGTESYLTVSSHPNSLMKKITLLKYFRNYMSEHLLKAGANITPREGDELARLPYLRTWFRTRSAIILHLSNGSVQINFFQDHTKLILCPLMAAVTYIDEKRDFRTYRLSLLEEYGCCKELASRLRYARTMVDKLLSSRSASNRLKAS
UniProt Q13131: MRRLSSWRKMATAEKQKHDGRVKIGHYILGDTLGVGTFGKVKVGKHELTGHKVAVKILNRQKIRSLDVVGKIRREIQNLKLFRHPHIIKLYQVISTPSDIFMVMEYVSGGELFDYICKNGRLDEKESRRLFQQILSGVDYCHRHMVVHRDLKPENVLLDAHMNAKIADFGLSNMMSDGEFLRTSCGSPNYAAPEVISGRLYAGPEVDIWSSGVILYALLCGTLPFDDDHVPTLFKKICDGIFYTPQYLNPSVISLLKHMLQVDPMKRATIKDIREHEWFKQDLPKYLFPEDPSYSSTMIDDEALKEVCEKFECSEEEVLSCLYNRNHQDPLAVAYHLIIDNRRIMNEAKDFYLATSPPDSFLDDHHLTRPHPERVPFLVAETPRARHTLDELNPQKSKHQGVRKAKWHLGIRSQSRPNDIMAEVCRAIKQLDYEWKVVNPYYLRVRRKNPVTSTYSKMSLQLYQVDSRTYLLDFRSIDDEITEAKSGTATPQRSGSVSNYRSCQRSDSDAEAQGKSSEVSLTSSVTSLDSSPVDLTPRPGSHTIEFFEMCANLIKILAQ
UniProt Q14289, whole entry, looked up: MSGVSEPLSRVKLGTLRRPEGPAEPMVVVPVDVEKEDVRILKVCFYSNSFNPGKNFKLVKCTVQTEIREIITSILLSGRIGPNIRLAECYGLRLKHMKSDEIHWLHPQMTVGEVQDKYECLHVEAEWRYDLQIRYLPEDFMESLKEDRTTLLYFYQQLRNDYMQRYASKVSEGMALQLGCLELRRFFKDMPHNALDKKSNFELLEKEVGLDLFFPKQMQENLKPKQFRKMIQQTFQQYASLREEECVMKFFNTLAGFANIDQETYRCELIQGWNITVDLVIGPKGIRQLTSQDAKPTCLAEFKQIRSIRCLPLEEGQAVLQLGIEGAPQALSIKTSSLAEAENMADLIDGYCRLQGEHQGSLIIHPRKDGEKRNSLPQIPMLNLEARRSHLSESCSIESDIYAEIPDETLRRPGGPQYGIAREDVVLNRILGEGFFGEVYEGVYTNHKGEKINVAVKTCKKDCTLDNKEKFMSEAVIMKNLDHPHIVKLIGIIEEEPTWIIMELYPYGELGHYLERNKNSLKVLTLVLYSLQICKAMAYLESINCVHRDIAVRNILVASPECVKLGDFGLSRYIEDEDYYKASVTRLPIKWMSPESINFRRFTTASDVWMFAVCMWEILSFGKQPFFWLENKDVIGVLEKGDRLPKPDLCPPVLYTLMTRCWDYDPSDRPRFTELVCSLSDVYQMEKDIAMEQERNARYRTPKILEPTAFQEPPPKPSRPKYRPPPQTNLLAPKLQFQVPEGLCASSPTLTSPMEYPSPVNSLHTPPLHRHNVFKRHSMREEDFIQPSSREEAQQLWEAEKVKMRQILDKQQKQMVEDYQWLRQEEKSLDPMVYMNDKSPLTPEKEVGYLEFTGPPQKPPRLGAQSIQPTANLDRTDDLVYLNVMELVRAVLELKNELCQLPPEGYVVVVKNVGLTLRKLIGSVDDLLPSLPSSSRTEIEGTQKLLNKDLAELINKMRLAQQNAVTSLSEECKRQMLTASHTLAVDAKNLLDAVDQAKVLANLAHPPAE

Legend:
Experiment in all cases: kinase-Nluc reporter destabilization hit call (1 = scored as downregulated) (binary); higher = compound decreases kinase abundance
Settings in all cases: K562, 2-18 h
MAPK1 = MAPK1 (UniProt P28482)
MAPK4 = MAPK4 (UniProt P31152)
MAPKAPK2 = MAPKAPK2 (UniProt P49137)
MKNK1 = MKNK1 (UniProt Q9BUB5)
NTRK2 = NTRK2 (UniProt Q16620)
NTRK3 = NTRK3 (UniProt Q16288)
PAK4 = PAK4 (UniProt O96013)
PBK = PBK (UniProt Q96KB5)
PDGFRB = PDGFRB (UniProt P09619)
PDK1 = PDK1 (UniProt Q15118)
PDPK1 = PDPK1 (UniProt O15530)
PIK4CA = PIK4CA (UniProt P42356)
PIK4CB = PIK4CB (UniProt Q9UBF8)
PLK1 = PLK1 (UniProt P53350)
PRKAA1 = PRKAA1 (UniProt Q13131)
PRKCA = PRKCA (UniProt P17252)
PTK2 = PTK2 (UniProt Q05397)
PTK2B = PTK2B (UniProt Q14289)
RAF1 = RAF1 (UniProt P04049)
[1] = target: RAF1_S257L (clone: RAF1_mut) (UniProt P04049)

Measured: kinase-Nluc reporter destabilization hit call

COc1ccc(S(=O)(=O)Nc2ccccc2CN(C)C/C=C/c2ccc(Cl)cc2)cc1 [KN-92 (phosphate)]
inactive: MAPK1; 2.5 µM 0 | MAPK4; 2.5 µM 0 | MAPKAPK2; 2.5 µM 0 | MKNK1; 2.5 µM 0 | NTRK2; 2.5 µM 0 | NTRK3; 2.5 µM 0 | PAK4; 2.5 µM 0 | PBK; 2.5 µM 0 | PDGFRB; 2.5 µM 0 | PDK1; 2.5 µM 0 | PDPK1; 2.5 µM 0 | PIK4CA; 2.5 µM 0 | PIK4CB; 2.5 µM 0 | PLK1; 2.5 µM 0 | PRKAA1; 2.5 µM 0 | PRKCA; 2.5 µM 0 | PTK2; 2.5 µM 0 | PTK2B; 2.5 µM 0 | RAF1; 2.5 µM 0 | [1]; 2.5 µM 0

COc1cc(/C=C/C(=O)O)ccc1O [Ferulic acid (sodium)]
inactive: MAPK1; 10 µM 0 | MAPK4; 10 µM 0 | MAPKAPK2; 10 µM 0 | MKNK1; 10 µM 0 | NTRK2; 10 µM 0 | NTRK3; 10 µM 0 | PAK4; 10 µM 0 | PBK; 10 µM 0 | PDGFRB; 10 µM 0 | PDK1; 10 µM 0 | PDPK1; 10 µM 0 | PIK4CA; 10 µM 0 | PIK4CB; 10 µM 0 | PLK1; 10 µM 0 | PRKAA1; 10 µM 0 | PRKCA; 10 µM 0 | PTK2; 10 µM 0 | PTK2B; 10 µM 0 | RAF1; 10 µM 0 | [1]; 10 µM 0

CN1CCCN(C(=O)c2cccc(-c3ccc(/C=C4/C(=O)Nc5ccc(Cl)cc54)o3)c2)CC1 [CX-6258 (hydrochloride hydrate)]
inactive: MAPK1; 2.5 µM 0 | MAPK4; 2.5 µM 0 | MAPKAPK2; 2.5 µM 0 | MKNK1; 2.5 µM 0 | NTRK2; 2.5 µM 0 | NTRK3; 2.5 µM 0 | PAK4; 2.5 µM 0 | PBK; 2.5 µM 0 | PDGFRB; 2.5 µM 0 | PDK1; 2.5 µM 0 | PDPK1; 2.5 µM 0 | PIK4CA; 2.5 µM 0 | PIK4CB; 2.5 µM 0 | PLK1; 2.5 µM 0 | PRKAA1; 2.5 µM 0 | PRKCA; 2.5 µM 0 | PTK2; 2.5 µM 0 | PTK2B; 2.5 µM 0 | RAF1; 2.5 µM 0 | [1]; 2.5 µM 0

CNC(=O)c1cc(Oc2ccc(NC(=O)Nc3ccc(Cl)c(C(F)(F)F)c3)c(F)c2)ccn1 [Regorafenib (monohydrate)]
inactive: MAPK1; 2.5 µM 0 | MAPK4; 2.5 µM 0 | MAPKAPK2; 2.5 µM 0 | MKNK1; 2.5 µM 0 | NTRK2; 2.5 µM 0 | NTRK3; 2.5 µM 0 | PAK4; 2.5 µM 0 | PBK; 2.5 µM 0 | PDGFRB; 2.5 µM 0 | PDK1; 2.5 µM 0 | PDPK1; 2.5 µM 0 | PIK4CA; 2.5 µM 0 | PIK4CB; 2.5 µM 0 | PLK1; 2.5 µM 0 | PRKAA1; 2.5 µM 0 | PRKCA; 2.5 µM 0 | PTK2; 2.5 µM 0 | PTK2B; 2.5 µM 0 | RAF1; 2.5 µM 0 | [1]; 2.5 µM 0

C=CC(=O)Nc1cc(Nc2nccc(-c3cn(C)c4ccccc34)n2)c(OC)cc1N(C)CCN(C)C [Osimertinib (dimesylate)]
inactive: MAPK1; 2.5 µM 0 | MAPK4; 2.5 µM 0 | MAPKAPK2; 2.5 µM 0 | MKNK1; 2.5 µM 0 | NTRK2; 2.5 µM 0 | NTRK3; 2.5 µM 0 | PAK4; 2.5 µM 0 | PBK; 2.5 µM 0 | PDGFRB; 2.5 µM 0 | PDK1; 2.5 µM 0 | PDPK1; 2.5 µM 0 | PIK4CA; 2.5 µM 0 | PIK4CB; 2.5 µM 0 | PLK1; 2.5 µM 0 | PRKAA1; 2.5 µM 0 | PRKCA; 2.5 µM 0 | PTK2; 2.5 µM 0 | PTK2B; 2.5 µM 0 | RAF1; 2.5 µM 0 | [1]; 2.5 µM 0

CNC(=O)c1ccccc1Nc1cc(Nc2ccc(N3CCOCC3)cc2OC)ncc1C(F)(F)F [PND-1186 (hydrochloride)]
inactive: MAPK1; 10 µM 0 | MAPK4; 10 µM 0 | MAPKAPK2; 10 µM 0 | MKNK1; 10 µM 0 | NTRK2; 10 µM 0 | NTRK3; 10 µM 0 | PAK4; 10 µM 0 | PBK; 10 µM 0 | PDGFRB; 10 µM 0 | PDK1; 10 µM 0 | PDPK1; 10 µM 0 | PIK4CA; 10 µM 0 | PIK4CB; 10 µM 0 | PLK1; 10 µM 0 | PRKAA1; 10 µM 0 | PRKCA; 10 µM 0 | PTK2; 10 µM 0 | PTK2B; 10 µM 0 | RAF1; 10 µM 0 | [1]; 10 µM 0

O=C1Nc2ccccc2/C1=C/c1ccccn1 [(E/Z)-GSK-3β inhibitor 1]
inactive: MAPK1; 10 µM 0 | MAPK4; 10 µM 0 | MAPKAPK2; 10 µM 0 | MKNK1; 10 µM 0 | NTRK2; 10 µM 0 | NTRK3; 10 µM 0 | PAK4; 10 µM 0 | PBK; 10 µM 0 | PDGFRB; 10 µM 0 | PDK1; 10 µM 0 | PDPK1; 10 µM 0 | PIK4CA; 10 µM 0 | PIK4CB; 10 µM 0 | PLK1; 10 µM 0 | PRKAA1; 10 µM 0 | PRKCA; 10 µM 0 | PTK2; 10 µM 0 | PTK2B; 10 µM 0 | RAF1; 10 µM 0 | [1]; 10 µM 0

CCN(CC)CC(=O)Nc1c(C)cccc1C [Lidocaine]
inactive: MAPK1; 10 µM 0 | MAPK4; 10 µM 0 | MAPKAPK2; 10 µM 0 | MKNK1; 10 µM 0 | NTRK2; 10 µM 0 | NTRK3; 10 µM 0 | PAK4; 10 µM 0 | PBK; 10 µM 0 | PDGFRB; 10 µM 0 | PDK1; 10 µM 0 | PDPK1; 10 µM 0 | PIK4CA; 10 µM 0 | PIK4CB; 10 µM 0 | PLK1; 10 µM 0 | PRKAA1; 10 µM 0 | PRKCA; 10 µM 0 | PTK2; 10 µM 0 | PTK2B; 10 µM 0 | RAF1; 10 µM 0 | [1]; 10 µM 0

CN(C)C(=N)NC(=N)N [Metformin]
inactive: MAPK1; 10 µM 0 | MAPK4; 10 µM 0 | MAPKAPK2; 10 µM 0 | MKNK1; 10 µM 0 | NTRK2; 10 µM 0 | NTRK3; 10 µM 0 | PAK4; 10 µM 0 | PBK; 10 µM 0 | PDGFRB; 10 µM 0 | PDK1; 10 µM 0 | PDPK1; 10 µM 0 | PIK4CA; 10 µM 0 | PIK4CB; 10 µM 0 | PLK1; 10 µM 0 | PRKAA1; 10 µM 0 | PRKCA; 10 µM 0 | PTK2; 10 µM 0 | PTK2B; 10 µM 0 | RAF1; 10 µM 0 | [1]; 10 µM 0
